# The list shows a part of the results.
# Amino acid sequences for entries named in this document (tags omitted).
# UniProt Q0JBA9, entry or part of it: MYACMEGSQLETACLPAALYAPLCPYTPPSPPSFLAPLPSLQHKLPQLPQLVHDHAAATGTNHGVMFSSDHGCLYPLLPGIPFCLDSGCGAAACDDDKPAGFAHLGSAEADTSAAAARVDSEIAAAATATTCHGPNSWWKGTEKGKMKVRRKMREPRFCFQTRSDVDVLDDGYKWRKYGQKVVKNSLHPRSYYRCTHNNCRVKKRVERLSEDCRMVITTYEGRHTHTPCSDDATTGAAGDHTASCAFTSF
# Biological target: OsWRKY34 (Oryza sativa, UniProt Q0JBA9 1-250)
# Assay: protein-binding microarray (RPBM); PBS, 2% BSA, 51.3 ng/ul salmon testes DNA, 50 uM zinc acetate, 200 nM TF, 25 C, 1 h; high values mean tight binding
# Details: protein: recombinant; tags: N-terminal polyhistidine and DsRed monomer fusion (pET32a); label: CyDye5-dUTP incorporated in the synthesized complementary strand; 3' TTTTT single-stranded linker to array surface; dsDNA, one strand shown
# In short: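 The binding signal is fluorescence intensity per array feature (arbitrary units). Readings came from an Axon 4000B scanner after a washed, 2% BSA-blocked, double-stranded custom Agilent array had been incubated for 1 h at 25 °C with 200 nM protein and 50 µM zinc acetate. The protein was a Ni–NTA-purified transcription factor fused N-terminally to polyhistidine and DsRed, expressed in E. coli BL21-CodonPlus.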
row,Sequence,binding signal
1,GACTGGGCCGTTGACCAGACGTGTACCCCACCGGCCAGTCCGGAGTCACCTAGTGCAG,9290 fluorescence intensity (a.u.)
2,ATAAATCACGTGTCTCTTCTCTTGGTTTGCACATTCTTGCCGGAGTCACCTAGTGCAG,11700 fluorescence intensity (a.u.)
3,TGTAAACTGTGCAATTGGTTTTTTCTTCACATTTATTGCTCGGAGTCACCTAGTGCAG,8400 fluorescence intensity (a.u.)
4,TTGGTTAGGAACTTGGTATGGTAGGGAGTTGTTGTATTGTCGGAGTCACCTAGTGCAG,8670 fluorescence intensity (a.u.)
5,ATAACAACCCGGCCCCGCCGCCACTCCATCCCCGACTCACCGGAGTCACCTAGTGCAG,8520 fluorescence intensity (a.u.)
6,ATCAAATCCAATCCAGGCGGTCCTCGAATTTCCTCCCTTGCGGAGTCACCTAGTGCAG,8060 fluorescence intensity (a.u.)
7,ATTAGCGGAGTGCGTGAGGGCGGTGTTGTATGTGTACCTACGGAGTCACCTAGTGCAG,8760 fluorescence intensity (a.u.)
8,TTTATATGACCGATCTTCTGTCCTGTCCAATAACAACGATCGGAGTCACCTAGTGCAG,8060 fluorescence intensity (a.u.)
9,AGCTGCCACAAGCCGAAGGCACGTTGACTTAAAAGAAGCCCGGAGTCACCTAGTGCAG,10700 fluorescence intensity (a.u.)
10,TTTTCCCAACTATATACAGTTTCTAACCCTTGTTTTTTAGCGGAGTCACCTAGTGCAG,8570 fluorescence intensity (a.u.)
11,GGGTGAAAATGTCTGGTTTTGTGGTTTAAGGGTGTAATTCCGGAGTCACCTAGTGCAG,8700 fluorescence intensity (a.u.)
12,AACAACTACTCGTCTTCACTTGCCTGGTTACGAATTGAGCCGGAGTCACCTAGTGCAG,9010 fluorescence intensity (a.u.)
13,GCCCGCACCATCCCCTTCCTCGTCCACAACCCCGACATCGCGGAGTCACCTAGTGCAG,8290 fluorescence intensity (a.u.)
14,GTGTCATTCTCCTCACACGCCGGTCTCCATGAGCGAGTTTCGGAGTCACCTAGTGCAG,8110 fluorescence intensity (a.u.)
15,GAGGGTGGAGGTTGGGTGACCAAGAGTTTATTAATGACAACGGAGTCACCTAGTGCAG,10400 fluorescence intensity (a.u.)
16,GGACCTTATTTTTGTAGCGTGTTTATTTGGGAGTAACTTACGGAGTCACCTAGTGCAG,12100 fluorescence intensity (a.u.)
17,CCTATGAAGAAACTTACGCTGACGGCTGACCTAAACGTGCCGGAGTCACCTAGTGCAG,11000 fluorescence intensity (a.u.)
18,CTCTGCACATGGCGCAACATCTATTTTGTACTATTAATTGCGGAGTCACCTAGTGCAG,9520 fluorescence intensity (a.u.)
19,TGATTTTTTGACAAACATTTGACCTTTCGTCTTATTTAAACGGAGTCACCTAGTGCAG,8620 fluorescence intensity (a.u.)
20,GATAGTAGTTCTTGTCTTGTGGTGCGATCCGGTTTGTCTTCGGAGTCACCTAGTGCAG,8890 fluorescence intensity (a.u.)
21,TACATATCCGTATTTGAGTCGGTTTTTAAGGTCGTTCACTCGGAGTCACCTAGTGCAG,8560 fluorescence intensity (a.u.)

row,Sequence,binding signal
1,TCGGTCTGGTGTATTTTGTGGTGCAATTTAACTCCATAAACGGAGTCACCTAGTGCAG,9100 fluorescence intensity (a.u.)
2,ACCCGCACGTCTTCCGCGGCCACGCCACCGTCGATCCCCGCGGAGTCACCTAGTGCAG,8620 fluorescence intensity (a.u.)
3,CAGCAAAAAGGGATTTTTTTTTCTATTCATCTTTGTTAGTCGGAGTCACCTAGTGCAG,8390 fluorescence intensity (a.u.)
4,CGGTTTAATTAGGCTTAAAAGATTCGTCTCGCAAGTTTTTCGGAGTCACCTAGTGCAG,9820 fluorescence intensity (a.u.)
5,CACATTTTCTTTTGGGACTTCAGATATTCCTTTTTACATGCGGAGTCACCTAGTGCAG,9800 fluorescence intensity (a.u.)
6,CGGGATGGTGACTACGCCAAGGTCATGCTTGTTTTTGATACGGAGTCACCTAGTGCAG,9810 fluorescence intensity (a.u.)
7,TGTTACGTATCAAACCTATCCCTACCCACACTATTGGCCTCGGAGTCACCTAGTGCAG,9260 fluorescence intensity (a.u.)
8,TTATTGTTTTTATTGTCTTTTTTTCTTTATATTTCCAAAACGGAGTCACCTAGTGCAG,11400 fluorescence intensity (a.u.)
9,CATTTTCTTGGTTTGGTCTTTTTTATTGTTGGGTGTGTTTCGGAGTCACCTAGTGCAG,15500 fluorescence intensity (a.u.)
10,GCTGTCGTCCCTGCTGTTCTTGGTGTGCTTCTTCACTGTCCGGAGTCACCTAGTGCAG,13600 fluorescence intensity (a.u.)
11,ACGCTGATTCAATTGTCATCCAATTTCTCGATTTATCTGTCGGAGTCACCTAGTGCAG,11400 fluorescence intensity (a.u.)
12,TATATACTTTCATGGGTCTATATTTATATGTATGTATACACGGAGTCACCTAGTGCAG,8690 fluorescence intensity (a.u.)
13,TGTTGTTCTGTTTTCATAATGGAGATTGCCATGCTTCACACGGAGTCACCTAGTGCAG,8570 fluorescence intensity (a.u.)
14,ATTCACATTCCATTCCCATCCGGTTGTTCTTGCATGTTCTCGGAGTCACCTAGTGCAG,14700 fluorescence intensity (a.u.)
15,GCCGTCTCGCCTCCTATTCTGTCGCGACGCCACCACTGCTCGGAGTCACCTAGTGCAG,11000 fluorescence intensity (a.u.)
16,ACCTGAATGACTGAATCCTATCTTGACGCTGCAATCTGGACGGAGTCACCTAGTGCAG,8190 fluorescence intensity (a.u.)
17,AACCGGCGGCACGAGGTGGGGAGGGAGTGGAGGGGCCCGACGGAGTCACCTAGTGCAG,9170 fluorescence intensity (a.u.)
18,TACGGTGAACTACTACGCTTCAATCAATTTCCCTTTTCTTCGGAGTCACCTAGTGCAG,10800 fluorescence intensity (a.u.)
19,GCGTCGCCTCGTGACCTCCGCTTCTCCGCCGCCGACATCGCGGAGTCACCTAGTGCAG,9660 fluorescence intensity (a.u.)
20,ACTGTTCGGTATTGCTGTTTCGTTATGTCTCGCGCAACGACGGAGTCACCTAGTGCAG,9770 fluorescence intensity (a.u.)
21,TATTGGGGCTGCCGATTGCACTGCACAGGTTCATTTCTTCCGGAGTCACCTAGTGCAG,9320 fluorescence intensity (a.u.)

# A second format for part of the listing above.
row	Sequence	binding signal
12	TATATACTTTCATGGGTCTATATTTATATGTATGTATACACGGAGTCACCTAGTGCAG	8690 fluorescence intensity (a.u.)
13	TGTTGTTCTGTTTTCATAATGGAGATTGCCATGCTTCACACGGAGTCACCTAGTGCAG	8570 fluorescence intensity (a.u.)
17	AACCGGCGGCACGAGGTGGGGAGGGAGTGGAGGGGCCCGACGGAGTCACCTAGTGCAG	9170 fluorescence intensity (a.u.)
18	TACGGTGAACTACTACGCTTCAATCAATTTCCCTTTTCTTCGGAGTCACCTAGTGCAG	10800 fluorescence intensity (a.u.)
19	GCGTCGCCTCGTGACCTCCGCTTCTCCGCCGCCGACATCGCGGAGTCACCTAGTGCAG	9660 fluorescence intensity (a.u.)
20	ACTGTTCGGTATTGCTGTTTCGTTATGTCTCGCGCAACGACGGAGTCACCTAGTGCAG	9770 fluorescence intensity (a.u.)

# Continuation:

row,Sequence,binding signal
1,AAGGTCGTGTATATTTCTATCATCCAATTATGTCACAACACGGAGTCACCTAGTGCAG,8820 fluorescence intensity (a.u.)
2,CTCTCTCTCTCTCTCTCTCTCTCTCTCTCTCCTCCCAAATCGGAGTCACCTAGTGCAG,10300 fluorescence intensity (a.u.)
3,GGTTGAGGGATGTGATTTATCGAGGGTGAGAGTTGAGGGACGGAGTCACCTAGTGCAG,9110 fluorescence intensity (a.u.)
4,GCCAGTCTGGGTGTTGGTCTGCTTCTTGTTCTGGTGCCGTCGGAGTCACCTAGTGCAG,11300 fluorescence intensity (a.u.)
5,ATCCTCTAAGTTTTTTCGCTAGCCAAGTCCACTACTACCTCGGAGTCACCTAGTGCAG,10000 fluorescence intensity (a.u.)
6,CCCATCCCCATCCCGATCCCGCCCAACTCGCGCCTCCTTCCGGAGTCACCTAGTGCAG,8820 fluorescence intensity (a.u.)
7,TTTGCTGGTGTTATTCCCCGTTCAAAATCTTCTCATTTTCCGGAGTCACCTAGTGCAG,11900 fluorescence intensity (a.u.)
8,TCTTCATGTTACATAATTCTCCTTGTTTAAGTCCATATAACGGAGTCACCTAGTGCAG,9140 fluorescence intensity (a.u.)
9,GGAGCGCAAGTGGGAGGCGGTGGAGGAGCTGGCGGCGGGGCGGAGTCACCTAGTGCAG,10900 fluorescence intensity (a.u.)
10,TCTCTGCATGACCTAGATCTATCGAGATAGCTAAACTATACGGAGTCACCTAGTGCAG,9400 fluorescence intensity (a.u.)
11,TGTTAACATCAAGTAGGAATTCGCCACTACTTTTATTTTTCGGAGTCACCTAGTGCAG,8260 fluorescence intensity (a.u.)
12,TAACTTCCACTCCTATTATTTTTTGTGCGCTACCCAAACACGGAGTCACCTAGTGCAG,9190 fluorescence intensity (a.u.)
13,GTGTCCCCGTCACTCTCCGGCCAGCGCCTCCACTCCACTCCGGAGTCACCTAGTGCAG,9340 fluorescence intensity (a.u.)
14,AATACTTGCGAGCTCCGATCTCTTCTTCTTCTTCGTGAGCCGGAGTCACCTAGTGCAG,8180 fluorescence intensity (a.u.)
15,GTTCATAGTGTCTAATGATTTTTGTTTTCATCCTAACTTCCGGAGTCACCTAGTGCAG,8610 fluorescence intensity (a.u.)
16,CCTGTATTTTCTAATCCTCTGTTTTACACATGCATTCCTGCGGAGTCACCTAGTGCAG,10800 fluorescence intensity (a.u.)
17,AGTACTATACTATTAATAATACCCGGTCTCACCTATCATACGGAGTCACCTAGTGCAG,8520 fluorescence intensity (a.u.)
18,TTTATTTTTGGTTGCTCATGTGTCGTTTTATGGCTTATTGCGGAGTCACCTAGTGCAG,11800 fluorescence intensity (a.u.)
19,GCATCCCGCGCGCCTCCTTTCCCTCCCGACCTCACCTCTCCGGAGTCACCTAGTGCAG,12400 fluorescence intensity (a.u.)
20,TAACTGTTTGTTTGCTACATTTATGATTATTTTAGAATTTCGGAGTCACCTAGTGCAG,8250 fluorescence intensity (a.u.)
21,GGGGCAGAGACAGAGAGCGTGAGGATGCGGGTGGGGACGCCGGAGTCACCTAGTGCAG,10200 fluorescence intensity (a.u.)

row,Sequence,binding signal
1,TTACGCTGTCACTTGCTCACTTCCCATGTGACCAAAATCTCGGAGTCACCTAGTGCAG,8840 fluorescence intensity (a.u.)
2,AATGCTTTTGTCTTTTTGATGGTGTCAATATGCTGGTCTTCGGAGTCACCTAGTGCAG,8240 fluorescence intensity (a.u.)
3,GCCGTCGCTCACGCTCGCTTCCGACTCCCTTGCTCCGCCGCGGAGTCACCTAGTGCAG,10500 fluorescence intensity (a.u.)
4,TGTCTCGATTCATGGTTCACCGTTCTATACGATGGAGCTGCGGAGTCACCTAGTGCAG,9170 fluorescence intensity (a.u.)
5,CGTTTTTCATATAATTGGTTTCACAGCAGCGCGTCATTTTCGGAGTCACCTAGTGCAG,9260 fluorescence intensity (a.u.)
6,CCGTTTCCGTTTCCGTTTCATATCATAAATTGTTTTAATTCGGAGTCACCTAGTGCAG,10300 fluorescence intensity (a.u.)
7,GTAGAATCATTTTTTTTTCACCAATGTTTGAATTCAAATACGGAGTCACCTAGTGCAG,10100 fluorescence intensity (a.u.)
8,CCTCCACGCAACGGAAACCACACCACACCCCGATACGACTCGGAGTCACCTAGTGCAG,8320 fluorescence intensity (a.u.)
9,CAATTCCCACGCGGTCGCTGAGCTCAGTTTCACAGTTTTCCGGAGTCACCTAGTGCAG,10800 fluorescence intensity (a.u.)
10,ACAGTATCCCCATATTACTTGCACACTGGCTGGCACACTGCGGAGTCACCTAGTGCAG,9720 fluorescence intensity (a.u.)
11,GCCTTAACTCCAGCGCCCGTGTCTCCGTCTCCGATTCCCCCGGAGTCACCTAGTGCAG,9010 fluorescence intensity (a.u.)
12,CATCGGGGTCGTTGTGCTGCTCGGAAATTGAGTTCGTTCCCGGAGTCACCTAGTGCAG,8810 fluorescence intensity (a.u.)
13,CATCTCTCCTGTGTTTTCCTCAAGTTTAGCTTACAGCTATCGGAGTCACCTAGTGCAG,10300 fluorescence intensity (a.u.)
14,TCATCCCACTCACTTTGTTTCATATTATAAATCATTTGACCGGAGTCACCTAGTGCAG,8190 fluorescence intensity (a.u.)
15,CTATTGTATCGGCTCTGGGAATATCCCAACATCCATGTGACGGAGTCACCTAGTGCAG,8410 fluorescence intensity (a.u.)
16,ATTTAATTTTTTGCTCCTTAGTGTTTATATGCTGAATTGTCGGAGTCACCTAGTGCAG,8040 fluorescence intensity (a.u.)
17,CCACGCGCTGCCTCCGCACCTCCCAGTACAGCCCGCCGACCGGAGTCACCTAGTGCAG,8360 fluorescence intensity (a.u.)
18,AGTTTGGGAGGAGGAGGGGAAAAAATCGCGATCAGGAAAACGGAGTCACCTAGTGCAG,8280 fluorescence intensity (a.u.)
19,CCAAGCCGCGCCACCACCGGCAACGCCACCTCTTGAGTCGCGGAGTCACCTAGTGCAG,8760 fluorescence intensity (a.u.)
20,ATGTCCCCTGCGACCATCTCTTTGTTAATTATACTAGTTTCGGAGTCACCTAGTGCAG,10700 fluorescence intensity (a.u.)
21,CTTGAAGGACCTTGTTTGGATACATTCATCTCGCCTTTTCCGGAGTCACCTAGTGCAG,8780 fluorescence intensity (a.u.)

# Part of the list above, as tab-separated lines:
row	Sequence	binding signal
18	AGTTTGGGAGGAGGAGGGGAAAAAATCGCGATCAGGAAAACGGAGTCACCTAGTGCAG	8280 fluorescence intensity (a.u.)
19	CCAAGCCGCGCCACCACCGGCAACGCCACCTCTTGAGTCGCGGAGTCACCTAGTGCAG	8760 fluorescence intensity (a.u.)

# Source: paper PMC7819943, “Rice protein-binding microarrays: a tool to detect cis-acting elements near promoter regions in rice”
